# Laboratory results as given in patent publication US20220074941A1, “HSP90 COMBINATION THERAPY” (Sloan-Kettering Institute for Cancer Research, priority 2011, published 2022).
# B1: GSE1 KIAA0182 (protein, UniProt Q14687 1-1217, looked up)
# Genetic suppressor element 1: MKGMSHEPKSPSLGMLSTATRTTATVNPLTPSPLNGALVPSGSPATSSALSAQAAPSSSFAAALRKLAKQAEEPRGSSLSSESSPVSSPATNHSSPASTPKRVPMGPIIVPPGGHSVPSTPPVVTIAPTKTVNGVWRSESRQDAGSRSSSGGRERLIVEPPLPQEKAGGPAIPSHLLSTPYPFGLSPSSVVQDSRFPPLNLQRPVHHVVPPSTVTEDYLRSFRPYHTTDDLRMSSLPPLGLDPATAAAYYHPSYLAPHPFPHPAFRMDDSYCLSALRSPFYPIPTPGSLPPLHPSAMHLHLSGVRYPPELSHSSLAALHSERMSGLSAERLQMDEELRREREREREREREREADREREKEREREREKEREQEKEREREKERERELERQREQRAREKELLAAKALEPSFLPVAELHGLRGHATEERGKPSEQLTPTRAEKLKDAGLQAPKPVQHPLHPVPTPHHTVPSLISNHGIFSLPSSSAATALLIQRTNEEEKWLARQRRLRQEKEDRQSQVSEFRQQVLEQHLDMGRPPVPAEAEHRPESTTRPGPNRHEPGGRDPPQHFGGPPPLISPKPQLHAAPTALWNPVSLMDNTLETRRAESHSLHSHPAAFEPSRQAAVPLVKVERVFCPEKAEEGPRKREPAPLDKYQPPPPPPREGGSLEHQPFLPGPGPFLAELEKSTQTILGQQRASLPQAATFGELSGPLKPGSPYRPPVPRAPDPAYIYDEFLQQRRRLVSKLDLEERRRREAQEKGYYYDLDDSYDESDEEEVRAHLRCVAEQPPLKLDTSSEKLEFLQLFGLTTQQQKEELVAQKRRKRRRMLRERSPSPPTIQSKRQTPSPRLALSTRYSPDEMNNSPNFEEKKKFLTIFNLTHISAEKRKDKERLVEMLRAMKQKALSAAVADSLTNSPRDSPAVSLSEPATQQASLDVEKPVGVAASLSDIPKAAEPGKLEQVRPQELSRVQELAPASGEKARLSEAPGGKKSLSMLHYIRGAAPKDIPVPLSHSTNGKSKPWEPFVAEEFAHQFHESVLQSTQKALQKHKGSVAVLSAEQNHKVDTSVHYNIPELQSSSRAPPPQHNGQQEPPTARKGPPTQELDRDSEEEEEEDDEDGEDEEEVPKRKWQGIEAVFEAYQEHIEEQNLERQVLQTQCRRLEARHYSLSLTAEQLSHSVAELRSQKQKMVSERERLQAELDHLRKCLALPAMHWPRGYLKGYPR
# B2: EPS15 (protein)
# chain: AAAAQLSLTQLSSGNPVYEKYYRQVDTGNTGRVLASDAAAFLKKSGLPDLILGKIWDLADTDGKGILNKQEFFVALRLVACAQNGLEVSLSSLNLAVPPPRFHDTSSPLLISGTSAAELPWAVKPEDKAKYDAIFDSLSPVNGFLSGDKVKPVLLNSKLPVDILGRVWELSDIDHDGMLDRDEFAVAMFLVYCALEKEPVPMSLPPALVPPSKRKTWVVSPAEKAKYDEIFLKTDKDMDGFVSGLEVREIFLKTGLPSTLLAHIWSLCDTKDCGKLSKDQFALAFHLISQKLIKGIDPPHVLTPEMIPPSDRASLQKNIIGSSPVADFSAIKELDTLNNEIVDLQREKNNVEQDLKEKEDTIKQRTSEVQDLQDEVQRENTNLQKLQAQKQQVQELLDELDEQKAQLEEQLKEVRKKCAEEAQLISSLKAELTSQESQISTYEEELAKAREELSRLQQETAELEESVESGKAQLEPLQQHLQDSQQEISSMQMKLMEMKDLENHNSQLNWCSSPHSILVNGATDYCSLSTSSSETANLNEHVEGQSNLESEPIHQESPARSSPELLPSGVTDENEVTTAVTEKVCSELDNNRHSKEEDPFNVDSSSLTGPVADTNLDFFQSDPFVGSDPFKDDPFGKIDPFGGDPFKGSDPFASDCFFRQSTDPFATSSTDPFSAANNSSITSVETLKHNDPFAPGGTVVAASDSATDPFASVFGNESFGGGFADFSTLSKVNNEDPFRSATSSSVSNVVITKNVFEETSVKSEDEPPALPPKIGTPTRPCPLPPGKRSINKLDSPDPFKLNDPFQPFPGNDSPKEKDPEIFCDPFTSATTTTNKEADPSNFANFSAYPSEEDMIEWAKRESEREEEQRLARLNQQEQEDLELAIALSKSEISEA
# B3: PDAP1 (protein, UniProt Q13442 1-181, looked up)
# 28 kDa heat- and acid-stable …: MPKGGRKGGHKGRARQYTSPEEIDAQLQAEKQKAREEEEQKEGGDGAAGDPKKEKKSLDSDESEDEEDDYQQKRKGVEGLIDIENPNRVAQTTKKVTQLDLDGPKELSRREREEIEKQKAKERYMKMHLAGKTEQAKADLARLAIIRKQREEAARKKEEERKAKDDATLSGKRMQSLSLNK
# B4: RIPK1 (protein, UniProt Q13546 1-671, looked up)
# Receptor-interacting …: MQPDMSLNVIKMKSSDFLESAELDSGGFGKVSLCFHRTQGLMIMKTVYKGPNCIEHNEALLEEAKMMNRLRHSRVVKLLGVIIEEGKYSLVMEYMEKGNLMHVLKAEMSTPLSVKGRIILEIIEGMCYLHGKGVIHKDLKPENILVDNDFHIKIADLGLASFKMWSKLNNEEHNELREVDGTAKKNGGTLYYMAPEHLNDVNAKPTEKSDVYSFAVVLWAIFANKEPYENAICEQQLIMCIKSGNRPDVDDITEYCPREIISLMKLCWEANPEARPTFPGIEEKFRPFYLSQLEESVEEDVKSLKKEYSNENAVVKRMQSLQLDCVAVPSSRSNSATEQPGSLHSSQGLGMGPVEESWFAPSLEHPQEENEPSLQSKLQDEANYHLYGSRMDRQTKQQPRQNVAYNREEERRRRVSHDPFAQQRPYENFQNTEGKGTAYSSAASHGNAVHQPSGLTSQPQVLYQNNGLYSSHGFGTRPLDPGTAGPRVWYRPIPSHMPSLHNIPVPETNYLGNTPTMPFSSLPPTDESIKYTIYNSTGIQIGAYNYMEIGGTSSSLLDSTNTNFKEEPAAKYQAIFDNTTSLTDKHLDPIRENLGKHWKNCARKLGFTQSQIDEIDHDYERDGLKEKVYQMLQKWVMREGIKGATVGKLAQALHQCSRIDLLSSLIYVSQN
# B5: PRMT3 (protein, UniProt O60678 2-531, looked up)
# Protein arginine …: CSLASGATGGRGAVENEEDLPELSDSGDEAAWEDEDDADLPHGKQQTPCLFCNRLFTSAEETFSHCKSEHQFNIDSMVHKHGLEFYGYIKLINFIRLKNPTVEYMNSIYNPVPWEKEEYLKPVLEDDLLLQFDVEDLYEPVSVPFSYPNGLSENTSVVEKLKHMEARALSAEAALARAREDLQKMKQFAQDFVMHTDVRTCSSSTSVIADLQEDEDGVYFSSYGHYGIHEEMLKDKIRTESYRDFIYQNPHIFKDKVVLDVGCGTGILSMFAAKAGAKKVLGVDQSEILYQAMDIIRLNKLEDTITLIKGKIEEVHLPVEKVDVIISEWMGYFLLFESMLDSVLYAKNKYLAKGGSVYPDICTISLVAVSDVNKHADRIAFWDDVYGFKMSCMKKAVIPEAVVEVLDPKTLISEPCGIKHIDCHTTSISDLEFSSDFTLKITRTSMCTAIAGYFDIYFEKNCHNRVVFSTGPQSTKTHWKQTVFLLEKPFSVKAGEALKGKVTVHKNKKDPRSLTVTLTLNNSTQTYGLQ
# B6: TBL1XR1 (protein, UniProt Q9BZK7 2-514, looked up)
# F-box-like/WD …: SISSDEVNFLVYRYLQESGFSHSAFTFGIESHISQSNINGALVPPAALISIIQKGLQYVEAEVSINEDGTLFDGRPIESLSLIDAVMPDVVQTRQQAYRDKLAQQQAAAAAAAAAAASQQGSAKNGENTANGEENGAHTIANNHTDMMEVDGDVEIPPNKAVVLRGHESEVFICAWNPVSDLLASGSGDSTARIWNLSENSTSGSTQLVLRHCIREGGQDVPSNKDVTSLDWNSEGTLLATGSYDGFARIWTKDGNLASTLGQHKGPIFALKWNKKGNFILSAGVDKTTIIWDAHTGEAKQQFPFHSAPALDVDWQSNNTFASCSTDMCIHVCKLGQDRPIKTFQGHTNEVNAIKWDPTGNLLASCSDDMTLKIWSMKQDNCVHDLQAHNKEIYTIKWSPTGPGTNNPNANLMLASASFDSTVRLWDVDRGICIHTLTKHQEPVYSVAFSPDGRYLASGSFDKCVHIWNTQTGALVHSYRGTGGIFEVCWNAAGDKVGASASDGSVCVLDLRK
# B7: HINT1 (protein, UniProt P49773 2-126, looked up)
# Adenosine …: ADEIAKAQVARPGGDTIFGKIIRKEIPAKIIFEDDRCLAFHDISPQAPTHFLVIPKKHISQISVAEDDDESLLGHLMIVGKKCAADLGLNKGYRMVVNEGSDGGQSVYHVHLHVLGGRQMHWPPG
# Key:
# [1] = tested on: Hsp90 complexes in K562 cell extract; assay: Nano-LC-MS/MS of PU-beads pull-downs; assay type: binding; conditions: protein identified in PU-beads pull-down of K562 extract, QSTAR-Elite QTof MS
# Outline: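 Lysates pre-cleared overnight at 4 °C with control beads, then pulled down with PU-beads or control beads; eluted proteins (2% SDS boil) gel-separated and analysed by nano LC-MS/MS on a QTof. Mascot identification (p<0.05), spectral counts and sequence coverage evaluated in Scaffold.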
# [2] = tested on: Hsp90 complexes in Mia-PaCa-2 cell extract; assay: Nano-LC-MS/MS of PU-beads pull-downs; assay type: binding, human; conditions: protein identified in PU-beads pull-down of Mia-Paca 2 extract; QSTAR-Elite QTof MS
# Outline: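 Lysates pre-cleared overnight at 4 °C with control beads underwent PU-bead pull-down; bound proteins were SDS-eluted, gel-separated, digested and analyzed by nano-LC-MS/MS on a QTof. Identifications used significance p<0.05, 0.4 Da tolerances and one missed cleavage; unique peptide (spectral) counts and sequence coverage were reported.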
Molecule,"Number of Assigned Spectra, K562 Prep 1 [1]","Number of Assigned Spectra, K562 Prep 2 [1]","Number of Assigned Spectra, Mia-Paca 2 [2]"
B1,11,2,0
B2,23,26,3
B3,0,0,5
B4,2,0,0
B5,6,1,1
B6,3,12,3
B7,0,0,9
